## Results from one PubChem assay

Data taken from PubChem BioAssay AID504749, deposited by NCATS (2011).

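Malaria parasite (P. falciparum) lines kept in red blood cells; parasite DNA is measured by SYBR Green fluorescence after lysis, 72 h after compound addition.
Each compound was titrated across a series from about 0.000037 to 29 µM.
The number is the fitted AC50, the concentration giving a half-maximal change in signal; a lower value means higher potency, whether the curve shows a decrease or an increase.
Calls follow the curve class and fit quality: every row here is inconclusive, covering signal-raising curves and weak, poorly fitted, partial or highest-dose-only inhibition curves.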

Values are in µM.
Every entry below has the call inconclusive.
Only part of the assay is shown, chiefly results filed as inconclusive.
A potency from a partial, single-point or poor curve is only a rough figure.

{"compound": "Clc1ccc(CS[C@@H](Cn2ccnc2)c2ccc(Cl)cc2Cl)cc1", "setting": "CP201", "Potency (µM)": "6.424", "curve": "inhibitor, single point"}
{"compound": "Clc1ccc(CS[C@@H](Cn2ccnc2)c2ccc(Cl)cc2Cl)cc1", "setting": "CP211", "Potency (µM)": "8.087", "curve": "inhibitor, single point"}
{"compound": "Clc1ccc(CS[C@@H](Cn2ccnc2)c2ccc(Cl)cc2Cl)cc1", "setting": "CP238", "Potency (µM)": "7.08", "curve": "inhibitor, single point"}
{"compound": "Clc1ccc(CS[C@@H](Cn2ccnc2)c2ccc(Cl)cc2Cl)cc1", "setting": "CP325", "Potency (µM)": "6.424", "curve": "inhibitor, single point"}
{"compound": "Clc1ccc(CS[C@@H](Cn2ccnc2)c2ccc(Cl)cc2Cl)cc1", "setting": "CP315", "Potency (µM)": "8.087", "curve": "inhibitor, single point"}
{"compound": "Clc1ccc(CS[C@@H](Cn2ccnc2)c2ccc(Cl)cc2Cl)cc1", "setting": "FAB9", "Potency (µM)": "10", "curve": "inhibitor, single point"}
{"compound": "Clc1ccc(CS[C@@H](Cn2ccnc2)c2ccc(Cl)cc2Cl)cc1", "setting": "CP329", "Potency (µM)": "6.424", "curve": "inhibitor, single point"}
{"compound": "Clc1ccc(CS[C@@H](Cn2ccnc2)c2ccc(Cl)cc2Cl)cc1", "setting": "CP268", "Potency (µM)": "8.087", "curve": "inhibitor, single point"}
{"compound": "Clc1ccc(CS[C@@H](Cn2ccnc2)c2ccc(Cl)cc2Cl)cc1", "setting": "CP215", "Potency (µM)": "5.103", "curve": "inhibitor, single point"}
{"compound": "Clc1ccc(CS[C@@H](Cn2ccnc2)c2ccc(Cl)cc2Cl)cc1", "setting": "JCK", "Potency (µM)": "7.08", "curve": "inhibitor, single point"}
{"compound": "Clc1ccc(CS[C@@H](Cn2ccnc2)c2ccc(Cl)cc2Cl)cc1", "setting": "CP262", "Potency (µM)": "5.726", "curve": "inhibitor, single point"}
{"compound": "O=C(O)c1cc(=O)c2c3nc4ccccc4oc-3cc(=O)c2[nH]1", "setting": "P93_24", "Potency (µM)": "11.22", "curve": "inhibitor, single point"}
{"compound": "O=C(O)c1cc(=O)c2c3nc4ccccc4oc-3cc(=O)c2[nH]1", "setting": "SC27B", "Potency (µM)": "12.59", "curve": "inhibitor, single point"}
{"compound": "O=C(O)c1cc(=O)c2c3nc4ccccc4oc-3cc(=O)c2[nH]1", "setting": "DIV17", "Potency (µM)": "15.1", "curve": "inhibitor, single point"}
{"compound": "O=C(O)c1cc(=O)c2c3nc4ccccc4oc-3cc(=O)c2[nH]1", "setting": "PAD", "Potency (µM)": "12.59", "curve": "inhibitor, single point"}
{"compound": "O=C(O)c1cc(=O)c2c3nc4ccccc4oc-3cc(=O)c2[nH]1", "setting": "AS120", "Potency (µM)": "14.13", "curve": "inhibitor, partial curve"}
{"compound": "O=C(O)c1cc(=O)c2c3nc4ccccc4oc-3cc(=O)c2[nH]1", "setting": "TAB165", "Potency (µM)": "17.78", "curve": "inhibitor, single point"}
{"compound": "O=C(O)c1cc(=O)c2c3nc4ccccc4oc-3cc(=O)c2[nH]1", "setting": "CP262", "Potency (µM)": "0.0005", "curve": "inhibitor"}
{"compound": "O=C(O)c1cc(=O)c2c3nc4ccccc4oc-3cc(=O)c2[nH]1", "setting": "CP335", "Potency (µM)": "19.01", "curve": "inhibitor, single point"}
{"compound": "O=C(O)c1cc(=O)c2c3nc4ccccc4oc-3cc(=O)c2[nH]1", "setting": "PC15", "Potency (µM)": "17.78", "curve": "inhibitor, single point"}
{"compound": "O=C(O)c1cc(=O)c2c3nc4ccccc4oc-3cc(=O)c2[nH]1", "setting": "W2", "Potency (µM)": "16.94", "curve": "inhibitor, single point"}
{"compound": "O=C(O)c1cc(=O)c2c3nc4ccccc4oc-3cc(=O)c2[nH]1", "setting": "ECU", "Potency (µM)": "17.78", "curve": "inhibitor, single point"}
{"compound": "O=C(O)c1cc(=O)c2c3nc4ccccc4oc-3cc(=O)c2[nH]1", "setting": "PC26", "Potency (µM)": "16.94", "curve": "inhibitor, single point"}
{"compound": "O=C(O)c1cc(=O)c2c3nc4ccccc4oc-3cc(=O)c2[nH]1", "setting": "DIV14", "Potency (µM)": "19.01", "curve": "inhibitor, single point"}
{"compound": "O=C(O)c1cc(=O)c2c3nc4ccccc4oc-3cc(=O)c2[nH]1", "setting": "CP286", "Potency (µM)": "12.59", "curve": "inhibitor, single point"}
{"compound": "O=C(O)c1cc(=O)c2c3nc4ccccc4oc-3cc(=O)c2[nH]1", "setting": "TAB109", "Potency (µM)": "17.78", "curve": "inhibitor, single point"}

For reference, 2 entries once more:

Compound	setting	Potency (µM)	curve
Clc1ccc(CS[C@@H](Cn2ccnc2)c2ccc(Cl)cc2Cl)cc1	CP329	6.424	inhibitor, single point
Clc1ccc(CS[C@@H](Cn2ccnc2)c2ccc(Cl)cc2Cl)cc1	CP268	8.087	inhibitor, single point